No constants are given. Whether binding was seen depends on the method and setting. Some results given as binding are weak or reduced against the parent protein; the word gives no strength.

The text below walks through data of publication PMC6389991.

The target of this experiment is malate dehydrogenase (MDH), denatured (UniProt P00346). The experiment can be described thus: cross-linking; glutaraldehyde; ~60 µg proteins in 50 mM sodium phosphate pH 8, 100 mM NaCl with or without ATP and MgCl2 (2 mM each), 37 °C; SDS-PAGE; MDH denatured at 48 °C; both purified.

B1: malate dehydrogenase (MDH), denatured (enzyme, UniProt P00346 25-338)
chain: AKVAVLGASGGIGQPLSLLLKNSPLVSRLTLYDIAHTPGVAADLSHIETRATVKGYLGPEQLPDCLKGCDVVVIPAGVPRKPGMTRDDLFNTNATIVATLTAACAQHCPDAMICIISNPVNSTIPITAEVFKKHGVYNPNKIFGVTTLDIVRANAFVAELKGLDPARVSVPVIGGHAGKTIIPLISQCTPKVDFPQDQLSTLTGRIQEAGTEVVKAKAGAGSATLSMAYAGARFVFSLVDAMNGKEGVVECSFVKSQETDCPYFSTPLLLGKKGIEKNLGIGKISPFEEKMIAEAIPELKASIKKGEEFVKNMK
With B1, the binding result is “binds”.
